These are yes or no findings as the source states them, for the method shown. Some binding calls cover weakened binding; strength is not graded here. For part of these data: Sequences can lack the tags named with a protein.
molecular target: extracellular domain of VEGFR2 immobilized onto magnetic beads (Homo sapiens (Human)) (UniProt P35968); assay: TRAP display selection on immobilised VEGFR2, second optimisation of L1

Chains of the proteins cited; added tags and fusions are not shown. Lines headed by an entry give the natural chain unless they say otherwise; changes in a name come on top.
UniProt P35968: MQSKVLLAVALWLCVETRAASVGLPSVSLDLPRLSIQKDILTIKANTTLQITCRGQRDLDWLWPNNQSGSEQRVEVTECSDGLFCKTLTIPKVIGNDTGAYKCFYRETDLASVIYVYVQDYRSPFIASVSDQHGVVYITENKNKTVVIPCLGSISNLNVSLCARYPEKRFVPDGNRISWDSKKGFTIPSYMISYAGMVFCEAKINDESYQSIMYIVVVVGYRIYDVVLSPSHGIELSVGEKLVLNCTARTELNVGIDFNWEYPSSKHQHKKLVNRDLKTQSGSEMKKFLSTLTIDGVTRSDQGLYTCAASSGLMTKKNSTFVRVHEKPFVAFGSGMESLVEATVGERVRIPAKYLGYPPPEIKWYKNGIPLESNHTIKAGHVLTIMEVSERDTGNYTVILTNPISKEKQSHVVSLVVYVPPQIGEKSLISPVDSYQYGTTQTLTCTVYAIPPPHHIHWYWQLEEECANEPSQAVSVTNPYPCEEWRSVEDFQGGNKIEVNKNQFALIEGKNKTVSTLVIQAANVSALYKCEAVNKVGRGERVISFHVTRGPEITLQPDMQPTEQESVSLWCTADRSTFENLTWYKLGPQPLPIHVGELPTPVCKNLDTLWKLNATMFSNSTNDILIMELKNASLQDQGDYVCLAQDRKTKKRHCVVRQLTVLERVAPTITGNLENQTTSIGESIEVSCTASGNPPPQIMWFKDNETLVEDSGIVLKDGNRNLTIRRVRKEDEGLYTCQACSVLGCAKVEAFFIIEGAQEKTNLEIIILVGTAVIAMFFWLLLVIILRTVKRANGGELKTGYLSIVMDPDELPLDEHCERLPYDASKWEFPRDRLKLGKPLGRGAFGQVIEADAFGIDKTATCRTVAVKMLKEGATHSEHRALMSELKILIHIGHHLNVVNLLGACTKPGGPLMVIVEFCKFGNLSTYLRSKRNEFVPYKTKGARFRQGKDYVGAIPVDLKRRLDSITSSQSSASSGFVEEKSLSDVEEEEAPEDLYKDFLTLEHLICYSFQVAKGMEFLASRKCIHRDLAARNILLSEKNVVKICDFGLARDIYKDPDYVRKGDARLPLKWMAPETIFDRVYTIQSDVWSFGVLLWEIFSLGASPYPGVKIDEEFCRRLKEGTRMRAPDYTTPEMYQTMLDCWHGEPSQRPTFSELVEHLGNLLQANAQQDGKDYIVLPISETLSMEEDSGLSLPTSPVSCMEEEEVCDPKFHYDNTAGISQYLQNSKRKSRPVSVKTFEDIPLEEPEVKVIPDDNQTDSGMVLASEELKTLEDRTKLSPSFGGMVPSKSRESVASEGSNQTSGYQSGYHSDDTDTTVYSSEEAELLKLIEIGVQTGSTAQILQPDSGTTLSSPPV

| binding | Binder |
| --- | --- |
| binds | FVVQHRDPWVNGLWFPC (ClAc on N-terminal Phe, cyclised to the C-terminal Cys) |
| binds | FTVVHSDPWVNGLWLPC (ClAc on N-terminal Phe, cyclised to the C-terminal Cys) |
| binds | FTVRHTDPWVNGLWISC (ClAc on N-terminal Phe, cyclised to the C-terminal Cys) |
| binds | FTVKHPDPWVNGLWISC (ClAc on N-terminal Phe, cyclised to the C-terminal Cys) |
| binds | FKVSHFDPWVNGLWLPC (ClAc on N-terminal Phe, cyclised to the C-terminal Cys) |
| binds | FVVRHSDPWVNGLWIDC (ClAc on N-terminal Phe, cyclised to the C-terminal Cys) |
| binds | FAVKHSDPWVNGLYLPC (ClAc on N-terminal Phe, cyclised to the C-terminal Cys) |
| binds | FTVTHSDPWVNGLFLPC (ClAc on N-terminal Phe, cyclised to the C-terminal Cys) |
| binds | FVVSHHDPWVNGLFIAC (ClAc on N-terminal Phe, cyclised to the C-terminal Cys) |
| binds | FVVVHADPWVNGLWIQC (ClAc on N-terminal Phe, cyclised to the C-terminal Cys) |
| binds | FSVYGLDPWINGLRFVC (ClAc on N-terminal Phe, cyclised to the C-terminal Cys) |
| binds | FIVYHADPWVNGLWLSC (ClAc on N-terminal Phe, cyclised to the C-terminal Cys) |
| binds | FSVVHSDPWVNGLYLSC (ClAc on N-terminal Phe, cyclised to the C-terminal Cys) |
| binds | FTVYSDDPWVNGLWLRC (ClAc on N-terminal Phe, cyclised to the C-terminal Cys) |
| binds | FTVFHTDPWVNGLWISC (ClAc on N-terminal Phe, cyclised to the C-terminal Cys) |
| binds | FQVSHPDPWVNGLILQC (ClAc on N-terminal Phe, cyclised to the C-terminal Cys) |
| binds | FVVTHPDPWVNGLFLPC (ClAc on N-terminal Phe, cyclised to the C-terminal Cys) |
| binds | FIVSHPDPWVNGLWLPC (ClAc on N-terminal Phe, cyclised to the C-terminal Cys) |
| binds | FEVSHPDPWVNGLWIPC (ClAc on N-terminal Phe, cyclised to the C-terminal Cys) |
| binds | FTVTHRDPWVNGLILSC (ClAc on N-terminal Phe, cyclised to the C-terminal Cys) |
| binds | FSVTHIDPWVNGLYLPC (ClAc on N-terminal Phe, cyclised to the C-terminal Cys) |
| binds | FSVSHPDPWVNGLWLPC (ClAc on N-terminal Phe, cyclised to the C-terminal Cys) |
| binds | FVVYSSDPWVNGLHLTC (ClAc on N-terminal Phe, cyclised to the C-terminal Cys) |
| binds | FVVKHPDPWVNGLYFHC (ClAc on N-terminal Phe, cyclised to the C-terminal Cys) |
| binds | FTVVHADPWVNGLYLPC (ClAc on N-terminal Phe, cyclised to the C-terminal Cys) |
| binds | FHVTHQDPWVNGLWIAC (ClAc on N-terminal Phe, cyclised to the C-terminal Cys) |
| binds | FTVTHIDPWVNGLWLPC (ClAc on N-terminal Phe, cyclised to the C-terminal Cys) |
| binds | FTVIHPDPWVNGLWLPC (ClAc on N-terminal Phe, cyclised to the C-terminal Cys) |

molecular target: extracellular domain of VEGFR2 immobilized onto magnetic beads (Homo sapiens (Human)) (UniProt P35968); assay: TRAP display selection on immobilised VEGFR2, second optimisation of BL1

| binding | Binder |
| --- | --- |
| binds | FLNGYRVKVHPISLEPC (MCAB on N-terminal Phe, cyclised to the C-terminal Cys) |
| binds | FIGPYRVKVHPVSLEYC (MCAB on N-terminal Phe, cyclised to the C-terminal Cys) |
| binds | FINSYVVKVHPISLEPC (MCAB on N-terminal Phe, cyclised to the C-terminal Cys) |
| binds | FIGPYRVKVHPVSLLPC (MCAB on N-terminal Phe, cyclised to the C-terminal Cys) |
| binds | FIGAYKVKVHPISLQPC (MCAB on N-terminal Phe, cyclised to the C-terminal Cys) |
| binds | FVNGYAVKVHPVSLEPC (MCAB on N-terminal Phe, cyclised to the C-terminal Cys) |
| binds | FLGPYRVKVHPISLHFC (MCAB on N-terminal Phe, cyclised to the C-terminal Cys) |
| binds | FIGPWFVKVHPVSLEPC (MCAB on N-terminal Phe, cyclised to the C-terminal Cys) |
| binds | FLNGYYVKVHPVSLEPC (MCAB on N-terminal Phe, cyclised to the C-terminal Cys) |
| binds | FIGPYWVKVHPISLLPC (MCAB on N-terminal Phe, cyclised to the C-terminal Cys) |
| binds | FIGPYLVKVHPVSLHFC (MCAB on N-terminal Phe, cyclised to the C-terminal Cys) |
| binds | FIGPYHVKVHPVSLEPC (MCAB on N-terminal Phe, cyclised to the C-terminal Cys) |
| binds | FVNGYIVKVHPVSLEPC (MCAB on N-terminal Phe, cyclised to the C-terminal Cys) |
| binds | FIYGFAVKVHPVSLEPC (MCAB on N-terminal Phe, cyclised to the C-terminal Cys) |
| binds | FIGPYRVKVHPISLEWC (MCAB on N-terminal Phe, cyclised to the C-terminal Cys) |
| binds | FIGTWVVKVHPVSLEPC (MCAB on N-terminal Phe, cyclised to the C-terminal Cys) |
| binds | FVNGYRVKVHPISLDWC (MCAB on N-terminal Phe, cyclised to the C-terminal Cys) |
| binds | FIGIYRVKVHPISLEYC (MCAB on N-terminal Phe, cyclised to the C-terminal Cys) |
| binds | FIGIYRVKVHPVSLEPC (MCAB on N-terminal Phe, cyclised to the C-terminal Cys) |
| binds | FILGYFVKVHPVSLDPC (MCAB on N-terminal Phe, cyclised to the C-terminal Cys) |
| binds | FYNGFAVKVHPISLENC (MCAB on N-terminal Phe, cyclised to the C-terminal Cys) |

More lines, now with the values behind:

| Binder | binding |
| --- | --- |
| FVGHYRVKVHPISLLPC (MCAB on N-terminal Phe, cyclised to the C-terminal Cys) | binds |
| FIGEYRVKVHPISLAPC (MCAB on N-terminal Phe, cyclised to the C-terminal Cys) | binds |
| FIGRYAVKVHPISLEPC (MCAB on N-terminal Phe, cyclised to the C-terminal Cys) | binds |
| FVGPYAVKVHPISLSPC (MCAB on N-terminal Phe, cyclised to the C-terminal Cys) | binds |
| FIGIFRVKVHPISLEPC (MCAB on N-terminal Phe, cyclised to the C-terminal Cys) | binds |
| FIGIYRVKVHPISLEPC (MCAB on N-terminal Phe, cyclised to the C-terminal Cys) | binds |
| FIGPYAVKVHPVSLEPC (MCAB on N-terminal Phe, cyclised to the C-terminal Cys) | binds |

molecular target: extracellular domain of VEGFR2 immobilized onto magnetic beads (Homo sapiens (Human)) (UniProt P35968); assay: TRAP display selection on VEGFR2 extracellular domain on magnetic beads

| binding | Binder |
| --- | --- |
| binds | FVVVSTDPWVNGLYIDC (ClAc on N-terminal L-Phe, cyclised to the C-terminal Cys) |
| binds | FIGHYRVKVHPISLERC (MCAB on N-terminal L-Phe, cyclised to the C-terminal Cys) |

molecular target: extracellular domain of VEGFR2 immobilized onto magnetic beads (Homo sapiens (Human)) (UniProt P35968); assay: TRAP display selection on VEGFR2, second optimization of BL1 (Xaa16 to Xaa20, Xaa26, Xaa29, Xaa30 randomized)

| binding | Binder |
| --- | --- |
| binds | FIGIYRVKVHPISLEPC (MCAB on N-terminal Phe, cyclised to the C-terminal Cys) |
| binds | FIGPYRVKVHPVSLEYC (MCAB on N-terminal Phe, cyclised to the C-terminal Cys) |

From patent US20150299258A1 (UNIVERSITY OF TOKYO, published 2015)
